Reference: US9862704B2, “Oxindole derivatives carrying an amine-substituted piperidyl-acetidinyl substituent and use thereof for treating vasopressine-related diseases” (AbbVie Deutschland GmbH & Co. KG, priority 2013, dated 2018)
At least one structure is not confirmed: it was looked up by name or label, or the drawing left a doubt.

The chains behind the UniProt entries cited, without tags or fusion partners.
UniProt P37288, whole entry: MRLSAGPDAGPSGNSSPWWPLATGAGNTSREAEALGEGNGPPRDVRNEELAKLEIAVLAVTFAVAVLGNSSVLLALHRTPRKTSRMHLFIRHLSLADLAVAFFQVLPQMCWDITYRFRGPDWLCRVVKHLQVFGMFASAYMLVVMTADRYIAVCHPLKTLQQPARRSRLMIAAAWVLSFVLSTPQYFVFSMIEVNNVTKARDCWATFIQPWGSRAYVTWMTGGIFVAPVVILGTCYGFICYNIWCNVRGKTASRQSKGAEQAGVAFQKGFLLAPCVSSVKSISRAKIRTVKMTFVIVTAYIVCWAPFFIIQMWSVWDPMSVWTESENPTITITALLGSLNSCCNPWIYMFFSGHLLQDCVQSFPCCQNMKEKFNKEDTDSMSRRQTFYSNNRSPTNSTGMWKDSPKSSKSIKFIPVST

Biological target: human vasopressin V1a receptor (Homo sapiens, UniProt P37288)
Assay: Vasopressin V1a receptor binding assay
Conditions: selectivity quotient, human V1a vs human V1b

| SMILES | Ki(hV1a)/Ki(hV1b) |
| --- | --- |
| CCOc1ncccc1[C@]1(NC(=O)N2CC(N3CCC(N4CCCC4)CC3)C2)C(=O)N(S(=O)(=O)c2ccc(OC)cc2OC)c2ccc(Cl)cc21 [Example 9, (S)—N-(5-chloro-1-((2,4-dimethoxyphenyl)sulfonyl)-3-(2-ethoxypyridin-3-yl)-2-oxoindolin-3-yl)-3-(4-(pyrrolidin-1-yl)piperidin-1-yl)azetidine-1-carboxamide] | +++ (>75) |
| CCOc1ncccc1[C@]1(NC(=O)N2CC(N3CCC(N4CCCCC4)CC3)C2)C(=O)N(S(=O)(=O)c2ccc(OC)cc2OC)c2ccc(Cl)cc21 [Example 8, (S)-3-([1,4′-bipiperidin]-1′-yl)-N-(5-chloro-1-((2,4-dimethoxyphenyl)sulfonyl)-3-(2-ethoxypyridin-3-yl)-2-oxoindolin-3-yl)azetidine-1-carboxamide] | + (10-<25) |
